Data from publication PMC8350409.

By UniProt entry, the sequences of proteins in these tests, tags left out. Where a name states a change or a piece, a line headed by the entry shows the natural chain unless it says otherwise. Chains listed by the source or under a name are the forms on record and can include a tag or linker. Residues count along the entry.
UniProt Q9UJ55: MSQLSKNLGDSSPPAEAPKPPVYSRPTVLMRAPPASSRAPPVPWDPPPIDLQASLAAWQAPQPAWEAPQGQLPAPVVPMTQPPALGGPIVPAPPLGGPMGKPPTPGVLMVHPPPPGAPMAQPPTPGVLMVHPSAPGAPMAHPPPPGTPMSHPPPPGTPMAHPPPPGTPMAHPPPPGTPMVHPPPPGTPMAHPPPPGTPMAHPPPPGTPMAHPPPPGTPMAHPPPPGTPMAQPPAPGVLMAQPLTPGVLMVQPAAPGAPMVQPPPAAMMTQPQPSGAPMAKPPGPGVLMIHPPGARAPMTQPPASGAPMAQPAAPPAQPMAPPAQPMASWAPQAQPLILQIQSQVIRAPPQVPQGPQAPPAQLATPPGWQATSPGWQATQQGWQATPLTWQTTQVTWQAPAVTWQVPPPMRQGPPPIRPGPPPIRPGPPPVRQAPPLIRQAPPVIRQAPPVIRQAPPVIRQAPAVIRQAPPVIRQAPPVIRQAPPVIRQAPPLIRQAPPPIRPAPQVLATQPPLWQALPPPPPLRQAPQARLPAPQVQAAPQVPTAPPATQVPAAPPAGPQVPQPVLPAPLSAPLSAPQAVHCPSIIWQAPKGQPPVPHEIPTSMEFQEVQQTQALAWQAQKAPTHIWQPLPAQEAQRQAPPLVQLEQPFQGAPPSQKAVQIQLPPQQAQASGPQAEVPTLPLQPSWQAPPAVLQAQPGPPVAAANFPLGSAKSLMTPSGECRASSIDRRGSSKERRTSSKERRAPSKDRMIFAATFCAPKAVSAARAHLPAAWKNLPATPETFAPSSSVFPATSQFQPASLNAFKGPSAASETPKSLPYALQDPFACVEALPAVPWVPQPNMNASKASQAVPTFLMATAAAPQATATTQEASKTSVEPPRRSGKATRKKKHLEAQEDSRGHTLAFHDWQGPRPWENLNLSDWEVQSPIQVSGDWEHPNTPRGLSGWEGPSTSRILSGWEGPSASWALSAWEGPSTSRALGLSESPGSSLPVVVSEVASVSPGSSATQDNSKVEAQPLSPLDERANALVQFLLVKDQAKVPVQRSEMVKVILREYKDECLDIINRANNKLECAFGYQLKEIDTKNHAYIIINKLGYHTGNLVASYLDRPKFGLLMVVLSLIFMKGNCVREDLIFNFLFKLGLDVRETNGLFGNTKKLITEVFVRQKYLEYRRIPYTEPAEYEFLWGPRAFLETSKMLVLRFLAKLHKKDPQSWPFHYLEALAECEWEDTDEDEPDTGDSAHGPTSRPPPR
FLAG-BirA*-CtermMAGEL2: residues 605-1249 of Q9UJ55
FLAG-BirA*-CtermMAGEL2p.R1187C (Q9UJ55, form named): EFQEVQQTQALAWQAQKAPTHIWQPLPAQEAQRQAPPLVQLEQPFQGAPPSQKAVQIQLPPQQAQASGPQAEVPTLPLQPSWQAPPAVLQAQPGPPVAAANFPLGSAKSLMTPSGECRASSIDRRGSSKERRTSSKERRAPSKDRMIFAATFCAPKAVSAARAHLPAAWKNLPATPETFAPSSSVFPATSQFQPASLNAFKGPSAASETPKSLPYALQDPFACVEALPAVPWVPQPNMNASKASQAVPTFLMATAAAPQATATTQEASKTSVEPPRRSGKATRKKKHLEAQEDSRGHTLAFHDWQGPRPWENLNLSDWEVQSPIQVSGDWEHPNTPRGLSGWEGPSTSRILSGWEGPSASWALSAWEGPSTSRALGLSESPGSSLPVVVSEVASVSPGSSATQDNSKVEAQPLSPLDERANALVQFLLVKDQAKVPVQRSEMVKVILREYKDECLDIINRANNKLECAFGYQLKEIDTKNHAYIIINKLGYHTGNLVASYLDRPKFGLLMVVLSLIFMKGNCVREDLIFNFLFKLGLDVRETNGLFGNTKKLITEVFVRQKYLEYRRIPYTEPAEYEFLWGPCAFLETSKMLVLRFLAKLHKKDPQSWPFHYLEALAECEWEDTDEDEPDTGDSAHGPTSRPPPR
FLAG-BirA*-CtermMAGEL2p.LL1031AA (Q9UJ55, form named): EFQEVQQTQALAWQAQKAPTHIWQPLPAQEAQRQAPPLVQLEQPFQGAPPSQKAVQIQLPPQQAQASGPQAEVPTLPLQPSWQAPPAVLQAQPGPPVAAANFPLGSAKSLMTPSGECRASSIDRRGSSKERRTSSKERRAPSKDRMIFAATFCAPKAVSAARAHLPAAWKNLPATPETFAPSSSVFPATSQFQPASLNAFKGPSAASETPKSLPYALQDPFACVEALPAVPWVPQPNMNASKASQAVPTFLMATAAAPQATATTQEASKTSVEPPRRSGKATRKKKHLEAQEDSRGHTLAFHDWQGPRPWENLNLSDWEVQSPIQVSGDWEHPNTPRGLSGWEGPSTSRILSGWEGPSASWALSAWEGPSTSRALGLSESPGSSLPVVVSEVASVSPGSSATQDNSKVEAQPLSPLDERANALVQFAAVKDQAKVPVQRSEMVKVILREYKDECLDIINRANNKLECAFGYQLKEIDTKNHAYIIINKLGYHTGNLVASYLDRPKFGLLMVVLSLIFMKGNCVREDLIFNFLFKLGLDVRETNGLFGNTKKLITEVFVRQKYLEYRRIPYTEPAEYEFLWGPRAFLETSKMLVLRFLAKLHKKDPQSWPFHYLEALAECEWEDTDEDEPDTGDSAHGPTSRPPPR
UniProt P67809: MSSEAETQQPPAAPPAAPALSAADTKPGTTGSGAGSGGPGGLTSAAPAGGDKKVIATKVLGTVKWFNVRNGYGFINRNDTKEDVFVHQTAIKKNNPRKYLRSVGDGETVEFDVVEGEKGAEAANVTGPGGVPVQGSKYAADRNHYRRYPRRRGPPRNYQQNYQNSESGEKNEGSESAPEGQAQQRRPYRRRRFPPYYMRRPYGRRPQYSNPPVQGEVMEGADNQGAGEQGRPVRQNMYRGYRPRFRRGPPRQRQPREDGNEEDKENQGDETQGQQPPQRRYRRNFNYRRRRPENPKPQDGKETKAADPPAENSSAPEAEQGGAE
UniProt Q96I24: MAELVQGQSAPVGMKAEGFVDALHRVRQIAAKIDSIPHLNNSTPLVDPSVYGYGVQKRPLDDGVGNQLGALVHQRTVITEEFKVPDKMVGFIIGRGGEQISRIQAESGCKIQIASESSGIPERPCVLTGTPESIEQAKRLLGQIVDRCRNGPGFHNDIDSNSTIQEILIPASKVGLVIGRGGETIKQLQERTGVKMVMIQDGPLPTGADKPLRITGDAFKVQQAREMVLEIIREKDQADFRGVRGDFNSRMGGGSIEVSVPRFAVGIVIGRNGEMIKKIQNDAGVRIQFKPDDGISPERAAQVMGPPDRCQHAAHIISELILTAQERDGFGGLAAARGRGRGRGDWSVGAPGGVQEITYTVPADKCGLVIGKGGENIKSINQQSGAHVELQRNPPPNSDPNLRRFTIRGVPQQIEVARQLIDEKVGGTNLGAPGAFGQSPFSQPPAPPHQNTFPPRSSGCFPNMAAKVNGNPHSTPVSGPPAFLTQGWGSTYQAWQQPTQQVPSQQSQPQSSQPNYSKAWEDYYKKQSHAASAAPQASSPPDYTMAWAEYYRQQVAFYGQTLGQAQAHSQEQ
UniProt O00571: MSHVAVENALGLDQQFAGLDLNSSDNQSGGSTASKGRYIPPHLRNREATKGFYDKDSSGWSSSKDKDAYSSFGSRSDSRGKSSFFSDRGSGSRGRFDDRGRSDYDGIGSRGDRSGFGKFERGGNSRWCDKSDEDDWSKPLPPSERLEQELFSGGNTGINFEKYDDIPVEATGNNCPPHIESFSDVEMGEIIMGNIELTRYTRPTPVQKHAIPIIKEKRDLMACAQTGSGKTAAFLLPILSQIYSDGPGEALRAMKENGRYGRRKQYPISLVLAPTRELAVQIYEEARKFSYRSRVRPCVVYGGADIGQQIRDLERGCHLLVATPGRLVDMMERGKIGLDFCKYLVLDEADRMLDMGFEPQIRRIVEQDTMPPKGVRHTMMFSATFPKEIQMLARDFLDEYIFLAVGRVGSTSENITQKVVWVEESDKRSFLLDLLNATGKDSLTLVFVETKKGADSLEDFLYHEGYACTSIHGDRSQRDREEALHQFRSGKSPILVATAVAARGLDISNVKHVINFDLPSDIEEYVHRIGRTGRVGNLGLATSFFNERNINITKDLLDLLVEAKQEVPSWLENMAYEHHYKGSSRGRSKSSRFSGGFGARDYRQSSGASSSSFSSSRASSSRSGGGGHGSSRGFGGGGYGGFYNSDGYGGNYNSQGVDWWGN
UniProt P46108: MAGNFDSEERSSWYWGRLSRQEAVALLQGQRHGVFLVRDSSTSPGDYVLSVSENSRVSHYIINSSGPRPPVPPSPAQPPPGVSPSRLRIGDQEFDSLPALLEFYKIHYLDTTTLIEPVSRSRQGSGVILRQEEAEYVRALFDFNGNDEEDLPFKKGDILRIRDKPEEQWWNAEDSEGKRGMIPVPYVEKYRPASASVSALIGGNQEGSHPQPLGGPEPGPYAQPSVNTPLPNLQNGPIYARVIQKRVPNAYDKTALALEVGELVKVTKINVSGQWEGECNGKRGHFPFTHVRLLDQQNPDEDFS
UniProt Q8NDV7: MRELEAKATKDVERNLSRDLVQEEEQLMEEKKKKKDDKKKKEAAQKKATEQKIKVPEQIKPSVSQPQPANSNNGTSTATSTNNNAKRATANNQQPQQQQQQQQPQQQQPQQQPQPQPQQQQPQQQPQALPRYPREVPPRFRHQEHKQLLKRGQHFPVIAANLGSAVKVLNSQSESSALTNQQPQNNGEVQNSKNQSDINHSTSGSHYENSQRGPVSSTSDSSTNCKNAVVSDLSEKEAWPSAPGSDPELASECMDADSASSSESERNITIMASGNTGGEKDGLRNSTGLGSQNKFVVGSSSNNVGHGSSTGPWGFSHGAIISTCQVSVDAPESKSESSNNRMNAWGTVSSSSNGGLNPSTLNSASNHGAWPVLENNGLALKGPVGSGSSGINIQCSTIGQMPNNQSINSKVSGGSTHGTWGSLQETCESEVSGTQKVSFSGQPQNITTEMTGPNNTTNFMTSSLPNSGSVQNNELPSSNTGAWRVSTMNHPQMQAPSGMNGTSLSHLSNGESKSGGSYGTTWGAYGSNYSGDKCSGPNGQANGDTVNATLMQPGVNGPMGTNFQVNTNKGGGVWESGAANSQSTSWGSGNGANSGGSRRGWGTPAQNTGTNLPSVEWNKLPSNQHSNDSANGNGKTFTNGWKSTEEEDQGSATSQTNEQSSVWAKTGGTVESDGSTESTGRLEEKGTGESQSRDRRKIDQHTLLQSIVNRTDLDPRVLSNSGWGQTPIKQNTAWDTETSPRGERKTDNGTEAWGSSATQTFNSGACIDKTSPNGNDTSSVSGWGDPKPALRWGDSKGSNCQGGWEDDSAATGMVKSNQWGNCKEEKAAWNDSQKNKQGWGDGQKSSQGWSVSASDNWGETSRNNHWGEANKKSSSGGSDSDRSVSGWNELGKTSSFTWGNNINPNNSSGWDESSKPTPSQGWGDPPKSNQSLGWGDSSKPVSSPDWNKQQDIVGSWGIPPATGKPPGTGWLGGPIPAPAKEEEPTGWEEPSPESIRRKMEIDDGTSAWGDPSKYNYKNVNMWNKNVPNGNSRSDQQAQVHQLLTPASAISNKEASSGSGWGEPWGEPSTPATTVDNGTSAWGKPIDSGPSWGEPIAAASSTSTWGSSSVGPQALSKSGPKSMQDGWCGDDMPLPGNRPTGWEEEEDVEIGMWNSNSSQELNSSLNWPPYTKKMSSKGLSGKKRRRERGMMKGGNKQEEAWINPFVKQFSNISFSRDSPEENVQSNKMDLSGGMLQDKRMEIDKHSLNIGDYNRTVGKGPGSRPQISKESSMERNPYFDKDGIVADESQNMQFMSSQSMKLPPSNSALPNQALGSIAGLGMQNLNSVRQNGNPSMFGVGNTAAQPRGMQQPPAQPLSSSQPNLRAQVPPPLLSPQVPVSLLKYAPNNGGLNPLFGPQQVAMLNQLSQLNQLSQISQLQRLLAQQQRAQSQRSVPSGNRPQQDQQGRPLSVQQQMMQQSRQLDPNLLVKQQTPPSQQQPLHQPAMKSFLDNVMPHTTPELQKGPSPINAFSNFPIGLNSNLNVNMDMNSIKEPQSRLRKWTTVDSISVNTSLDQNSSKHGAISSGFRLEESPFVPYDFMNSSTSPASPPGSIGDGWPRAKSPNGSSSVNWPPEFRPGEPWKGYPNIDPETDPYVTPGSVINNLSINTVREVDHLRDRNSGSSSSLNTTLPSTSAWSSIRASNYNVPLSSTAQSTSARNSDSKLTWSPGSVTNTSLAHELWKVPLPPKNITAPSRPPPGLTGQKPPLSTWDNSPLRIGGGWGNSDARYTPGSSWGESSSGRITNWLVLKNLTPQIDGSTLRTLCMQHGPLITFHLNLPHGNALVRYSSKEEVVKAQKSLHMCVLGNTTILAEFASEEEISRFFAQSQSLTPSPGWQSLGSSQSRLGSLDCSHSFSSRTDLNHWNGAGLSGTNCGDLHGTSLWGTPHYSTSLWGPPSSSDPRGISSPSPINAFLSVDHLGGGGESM

Key:
Experiment in all cases: proximity labelling; BioID: FLAG-BirA*-MAGEL2 bait (full length, Cterm or mutant Cterm) in stable HEK293 Flp-In T-REx cells, overnight 1 ug/ml tetracycline and 50 uM biotin; lysis in 50 mM Tris HCl, 500 mM NaCl, 0.2% SDS, 2% Triton-X, pH 8.0; biotinylated proteins captured on streptavidin sepharose; LC-MS/MS; CRAPome filtering
[1] = biological target: FLAG-BirA*-MAGEL2 (full-length MAGEL2) (human) (UniProt Q9UJ55)
[2] = biological target: FLAG-BirA*-CtermMAGEL2 (human) (UniProt Q9UJ55)
[3] = biological target: FLAG-BirA*-CtermMAGEL2p.R1187C (human) (UniProt Q9UJ55)
[4] = biological target: FLAG-BirA*-CtermMAGEL2p.LL1031AA (human) (UniProt Q9UJ55)

Molecule: eukaryotic initiation factor eIF4G1 (from UniProt Q04637 1-1599)
binding [3]: binds
binding [2]: binds

Molecule: chaperone protein (NUDC) (from UniProt Q9Y266 1-331)
binding [1]: binds

Molecule: YTHDF1 (YTH N6-methyladenosine RNA-binding protein 1) (from UniProt Q9BYJ9 1-559)
binding [1]: binds
binding [2]: no binding

Molecule: PRRC2C (from UniProt Q9Y520 1-2896)
binding [1]: binds

Molecule: ANKHD1 (from UniProt Q8IWZ3 1-2542)
binding [1]: binds

Molecule: proline-rich coiled-coil 2 A (PRRC2A) (from UniProt P48634 1-2157)
binding [1]: binds

Molecule: glyceraldehyde-3-phosphate dehydrogenase (GAPDH) (from UniProt P04406 1-335) (enzyme)
binding [1]: binds
binding [2]: binds

Molecule: eukaryotic initiation factor eIF4A1 (from UniProt P60842 1-406)
binding [3]: binds
binding [2]: binds

Molecule: Ubiquitin-associated protein 2-like (UBAP2L) (from UniProt Q14157 1-1087)
binding [1]: binds

Molecule: YBX1 (from UniProt P67809 1-324)
binding [4]: no binding
binding [3]: no binding
binding [2]: binds

Molecule: YTHDF3 (YTH N6-methyladenosine RNA-binding protein 3) (from UniProt Q7Z739 1-585)
binding [1]: binds
binding [2]: no binding

Molecule: STE20-like kinase (SLK) (from UniProt Q9H2G2 1-1235) (enzyme)
binding [2]: binds

B2: KHSRP (FUBP2) (protein, UniProt Q92945 1-711)
chain: MSDYSTGGPPPGPPPPAGGGGGAGGAGGGPPPGPPGAGDRGGGGPGGGGPGGGSAGGPSQPPGGGGPGIRKDAFADAVQRARQIAAKIGGDAATTVNNSTPDFGFGGQKRQLEDGDQPESKKLASQGDSISSQLGPIHPPPRTSMTEEYRVPDGMVGLIIGRGGEQINKIQQDSGCKVQISPDSGGLPERSVSLTGAPESVQKAKMMLDDIVSRGRGGPPGQFHDNANGGQNGTVQEIMIPAGKAGLVIGKGGETIKQLQERAGVKMILIQDGSQNTNVDKPLRIIGDPYKVQQACEMVMDILRERDQGGFGDRNEYGSRIGGGIDVPVPRHSVGVVIGRSGEMIKKIQNDAGVRIQFKQDDGTGPEKIAHIMGPPDRCEHAARIINDLLQSLRSGPPGPPGGPGMPPGGRGRGRGQGNWGPPGGEMTFSIPTHKCGLVIGRGGENVKAINQQTGAFVEISRQLPPNGDPNFKLFIIRGSPQQIDHAKQLIEEKIEGPLCPVGPGPGGPGPAGPMGPFNPGPFNQGPPGAPPHAGGPPPHQYPPQGWGNTYPQWQPPAPHDPSKAAAAAADPNAAWAAYYSHYYQQPPGPVPGPAPAPAAPPAQGEPPQPPPTGQSDYTKAWEEYYKKIGQQPQQPGAPPQQDYTKAWEEYYKKQAQVATGGGPGAPPGSQPDYSAAWAEYYRQQAAYYGQTPGPGGPQPPPTQQGQQQAQ
binding [1]: binds

B3: NSFL1 cofactor p47 (NSFL1C) (protein, UniProt Q9UNZ2 1-370)
chain: MAAERQEALREFVAVTGAEEDRARFFLESAGWDLQIALASFYEDGGDEDIVTISQATPSSVSRGTAPSDNRVTSFRDLIHDQDEDEEEEEGQRFYAGGSERSGQQIVGPPRKKSPNELVDDLFKGAKEHGAVAVERVTKSPGETSKPRPFAGGGYRLGAAPEEESAYVAGEKRQHSSQDVHVVLKLWKSGFSLDNGELRSYQDPSNAQFLESIRRGEVPAELRRLAHGGQVNLDMEDHRDEDFVKPKGAFKAFTGEGQKLGSTAPQVLSTSSPAQQAENEAKASSSILIDESEPTTNIQIRLADGGRLVQKFNHSHRISDIRLFIVDARPAMAATSFILMTTFPNKELADESQTLKEANLLNAVIVQRLT
binding [2]: binds

The next lines start with the values.

binding [1]: binds
binding [2]: no binding
Molecule: TNRC6B (trinucleotide repeat containing adaptor 6B) (from UniProt Q9UPQ9 1-1833)

binding [1]: binds
Molecule: FUBP3 (from UniProt Q96I24 1-572)

binding [2]: binds
Molecule: exocyst complex component 4 (EXOC4) (from UniProt Q96A65 1-974)

binding [2]: binds
Molecule: ENO1 (from UniProt P06733 1-434) (enzyme)

binding [2]: binds
Molecule: coronin 1B (CORO1B) (from UniProt Q9BR76 1-489)

binding [3]: binds
binding [1]: binds
binding [2]: binds
Molecule: DDX3X (from UniProt O00571 1-662)

binding [3]: binds
Molecule: adaptor protein crk (CRK) (from UniProt P46108 1-304)

binding [1]: binds
Molecule: ZFR (from UniProt Q96KR1 1-1074)

binding [2]: binds
Molecule: PKM (from UniProt P14618 1-531) (enzyme)

binding [1]: binds
Molecule: polyadenylate-binding protein 1 (PABPC1) (from UniProt P11940 1-636)

binding [1]: binds
binding [2]: no binding
Molecule: TNRC6A (trinucleotide repeat containing adaptor 6A) (from UniProt Q8NDV7 1-1962)

binding [1]: binds
Molecule: ANKRD17 (from UniProt O75179 1-2603)

binding [1]: binds
Molecule: HNRNPK (from UniProt P61978 1-463)

binding [1]: binds
Molecule: CLINT1 (Clathrin interactor 1) (from UniProt Q14677 1-625)

binding [2]: binds
Molecule: talin-1 (TLN1) (from UniProt Q9Y490 1-2541)

binding [1]: binds
Molecule: PUM1 (Pumilio homolog 1) (from UniProt Q14671 1-1186)

binding [3]: binds
binding [2]: binds
Molecule: CRK-like protein (CRKL) (from UniProt P46109 1-303)

binding [1]: binds
B1: SEC24B (protein, UniProt O95487 1-1268)
chain: MSAPAGSSHPAASARIPPKFGGAAVSGAAAPAGPGAGPAPHQQNGPAQNQMQVPSGYGLHHQNYIAPSGHYSQGPGKMTSLPLDTQCGDYYSALYTVPTQNVTPNTVNQQPGAQQLYSRGPPAPHIVGSTLGSFQGAASSASHLHTSASQPYSSFVNHYNSPAMYSASSSVASQGFPSTCGHYAMSTVSNAAYPSVSYPSLPAGDTYGQMFTSQNAPTVRPVKDNSFSGQNTAISHPSPLPPLPSQQHHQQQSLSGYSTLTWSSPGLPSTQDNLIRNHTGSLAVANNNPTITVADSLSCPVMQNVQPPKSSPVVSTVLSGSSGSSSTRTPPTANHPVEPVTSVTQPSELLQQKGVQYGEYVNNQASSAPTPLSSTSDDEEEEEEDEEAGVDSSSTTSSASPMPNSYDALEGGSYPDMLSSSASSPAPDPAPEPDPASAPAPASAPAPVVPQPSKMAKPFGYGYPTLQPGYQNATAPLISGVQPSNPVYSGFQQYPQQYPGVNQLSSSIGGLSLQSSPQPESLRPVNLTQERNILPMTPVWAPVPNLNADLKKLNCSPDSFRCTLTNIPQTQALLNKAKLPLGLLLHPFRDLTQLPVITSNTIVRCRSCRTYINPFVSFIDQRRWKCNLCYRVNDVPEEFMYNPLTRSYGEPHKRPEVQNSTVEFIASSDYMLRPPQPAVYLFVLDVSHNAVEAGYLTILCQSLLENLDKLPGDSRTRIGFMTFDSTIHFYNLQEGLSQPQMLIVSDIDDVFLPTPDSLLVNLYESKELIKDLLNALPNMFTNTRETHSALGPALQAAFKLMSPTGGRVSVFQTQLPSLGAGLLQSREDPNQRSSTKVVQHLGPATDFYKKLALDCSGQQTAVDLFLLSSQYSDLASLACMSKYSAGCIYYYPSFHYTHNPSQAEKLQKDLKRYLTRKIGFEAVMRIRCTKGLSMHTFHGNFFVRSTDLLSLANINPDAGFAVQLSIEESLTDTSLVCFQTALLYTSSKGERRIRVHTLCLPVVSSLADVYAGVDVQAAICLLANMAVDRSVSSSLSDARDALVNAVVDSLSAYGSTVSNLQHSALMAPSSLKLFPLYVLALLKQKAFRTGTSTRLDDRVYAMCQIKSQPLVHLMKMIHPNLYRIDRLTDEGAVHVNDRIVPQPPLQKLSAEKLTREGAFLMDCGSVFYIWVGKGCDNNFIEDVLGYTNFASIPQKMTHLPELDTLSSERARSFITWLRDSRPLSPILHIVKDESPAKAEFFQHLIEDRTEAAFSYYEFLLHVQQQICK

Results are given in words; binding and its absence hold for the method and conditions named. Binding seen in cells or lysates may run through a third protein. Here binding means that the protein was enriched with, or labelled near, the bait; the list need not be complete. For some assays here: A no says only that the protein was not detected with the bait. Each block holds one molecule with its values, some of them ahead of it.
